This is one part of the list. Construct or isoform of the protein are uncertain.

For this assay, the target named is T1, ELF2 (UniProt Q15723).
T1 sequence: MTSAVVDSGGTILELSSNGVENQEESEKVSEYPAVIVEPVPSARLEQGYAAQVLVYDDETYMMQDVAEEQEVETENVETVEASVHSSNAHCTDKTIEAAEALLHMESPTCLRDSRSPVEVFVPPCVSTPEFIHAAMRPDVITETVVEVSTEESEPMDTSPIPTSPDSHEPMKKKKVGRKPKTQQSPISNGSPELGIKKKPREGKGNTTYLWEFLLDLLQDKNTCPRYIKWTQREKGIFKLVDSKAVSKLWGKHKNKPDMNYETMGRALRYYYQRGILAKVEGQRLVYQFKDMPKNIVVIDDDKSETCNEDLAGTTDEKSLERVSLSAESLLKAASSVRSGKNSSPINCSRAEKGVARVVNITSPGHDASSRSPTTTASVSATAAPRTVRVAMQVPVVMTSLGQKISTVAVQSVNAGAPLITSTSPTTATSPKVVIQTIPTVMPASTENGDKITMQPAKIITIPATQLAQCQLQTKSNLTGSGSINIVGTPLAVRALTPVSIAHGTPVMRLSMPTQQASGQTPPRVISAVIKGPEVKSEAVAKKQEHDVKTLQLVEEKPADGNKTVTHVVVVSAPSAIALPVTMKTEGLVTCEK
Kind of assay: DAPPL (digital affinity profiling via proximity ligation, sequencing). The following applies: 10 mM Tris-HCl pH 7.5, 50 mM NaCl, 1 mM DTT, 4% glycerol, room temperature, 30 min; GST-TFs on glutathione beads, 16-mer random dsDNA library, 0.1% …; high values mean tight binding; double strand, one strand shown; scale: fold enrichment (6-mer frequency, TF over GST control).
ACGATC showed a binding signal of 0.984.

In turn, AACATC registered a binding signal of 1.51.

As to CCCGAC, the binding signal is 1.24.

As for TAAACA, the binding signal came to 1.2.

Turning to TACGCT, the binding signal stood at 1.27.

The sequence GCTTCA showed a binding signal of 1.22.

On to GAAAGA, for which the binding signal was found to be 1.03.

Sequence CACATT had a binding signal of 1.15.

Turning to CCTGTT, the binding signal came out at 1.89.

TATCTC displayed a binding signal of 1.2.

As to ATGGAT, the binding signal turned out to be 1.06.

As to TCACGC, the binding signal was determined as 1.13.

In the case of AAAATT, the binding signal was found to be 1.36.

Sequence AAAGAC displayed a binding signal of 1.03.

On to ATGATT, for which the binding signal was 1.18.

ACCGAT returned a binding signal of 1.05.

ATGACT registered a binding signal of 1.35.

GATTCC gave a binding signal of 1.29.

On to AACTAA, for which the binding signal stood at 1.4.

The sequence AATGAG showed a binding signal of 1.11.

In the case of TCGACT, the binding signal is 1.39.

For the sequence AACCCA, the binding signal came to 1.02.

On to CTAAGT, for which the binding signal came to 1.17.

For TATCGA, the binding signal was 1.24.

Turning to CACTTG, the binding signal is 1.23.

TCCGGC had a binding signal of 2.52.

For the sequence TCGCGC, the binding signal was found to be 1.02.

TTAAGC registered a binding signal of 1.11.

The sequence TGGTTA registered a binding signal of 1.01.

As to CTCTAA, the binding signal stood at 1.25.

Consider AAACCC, for which the binding signal was 1.34.

The sequence CTCGTA yielded a binding signal of 1.28.

In turn, CGATTA yielded a binding signal of 1.11.

CGACCC came in with a binding signal of 1.32.

ATCGAT came in with a binding signal of 1.09.

Sequence CCTGGA came in with a binding signal of 1.53.

CTCCTT registered a binding signal of 1.8.

Take TTATGA: the binding signal came out at 1.07.

With GATACT, the binding signal came to 1.13.

These data come from PMC7862700.
